Results reported in paper PMC4053355.
No constants are given. Whether binding was seen depends on the method and setting. In cells and extracts the contact can be indirect. Some binding calls cover weakened binding; strength is not graded here.

Chains of the proteins cited; added tags and fusions are not shown. Residues count along the entry.
UniProt Q15643: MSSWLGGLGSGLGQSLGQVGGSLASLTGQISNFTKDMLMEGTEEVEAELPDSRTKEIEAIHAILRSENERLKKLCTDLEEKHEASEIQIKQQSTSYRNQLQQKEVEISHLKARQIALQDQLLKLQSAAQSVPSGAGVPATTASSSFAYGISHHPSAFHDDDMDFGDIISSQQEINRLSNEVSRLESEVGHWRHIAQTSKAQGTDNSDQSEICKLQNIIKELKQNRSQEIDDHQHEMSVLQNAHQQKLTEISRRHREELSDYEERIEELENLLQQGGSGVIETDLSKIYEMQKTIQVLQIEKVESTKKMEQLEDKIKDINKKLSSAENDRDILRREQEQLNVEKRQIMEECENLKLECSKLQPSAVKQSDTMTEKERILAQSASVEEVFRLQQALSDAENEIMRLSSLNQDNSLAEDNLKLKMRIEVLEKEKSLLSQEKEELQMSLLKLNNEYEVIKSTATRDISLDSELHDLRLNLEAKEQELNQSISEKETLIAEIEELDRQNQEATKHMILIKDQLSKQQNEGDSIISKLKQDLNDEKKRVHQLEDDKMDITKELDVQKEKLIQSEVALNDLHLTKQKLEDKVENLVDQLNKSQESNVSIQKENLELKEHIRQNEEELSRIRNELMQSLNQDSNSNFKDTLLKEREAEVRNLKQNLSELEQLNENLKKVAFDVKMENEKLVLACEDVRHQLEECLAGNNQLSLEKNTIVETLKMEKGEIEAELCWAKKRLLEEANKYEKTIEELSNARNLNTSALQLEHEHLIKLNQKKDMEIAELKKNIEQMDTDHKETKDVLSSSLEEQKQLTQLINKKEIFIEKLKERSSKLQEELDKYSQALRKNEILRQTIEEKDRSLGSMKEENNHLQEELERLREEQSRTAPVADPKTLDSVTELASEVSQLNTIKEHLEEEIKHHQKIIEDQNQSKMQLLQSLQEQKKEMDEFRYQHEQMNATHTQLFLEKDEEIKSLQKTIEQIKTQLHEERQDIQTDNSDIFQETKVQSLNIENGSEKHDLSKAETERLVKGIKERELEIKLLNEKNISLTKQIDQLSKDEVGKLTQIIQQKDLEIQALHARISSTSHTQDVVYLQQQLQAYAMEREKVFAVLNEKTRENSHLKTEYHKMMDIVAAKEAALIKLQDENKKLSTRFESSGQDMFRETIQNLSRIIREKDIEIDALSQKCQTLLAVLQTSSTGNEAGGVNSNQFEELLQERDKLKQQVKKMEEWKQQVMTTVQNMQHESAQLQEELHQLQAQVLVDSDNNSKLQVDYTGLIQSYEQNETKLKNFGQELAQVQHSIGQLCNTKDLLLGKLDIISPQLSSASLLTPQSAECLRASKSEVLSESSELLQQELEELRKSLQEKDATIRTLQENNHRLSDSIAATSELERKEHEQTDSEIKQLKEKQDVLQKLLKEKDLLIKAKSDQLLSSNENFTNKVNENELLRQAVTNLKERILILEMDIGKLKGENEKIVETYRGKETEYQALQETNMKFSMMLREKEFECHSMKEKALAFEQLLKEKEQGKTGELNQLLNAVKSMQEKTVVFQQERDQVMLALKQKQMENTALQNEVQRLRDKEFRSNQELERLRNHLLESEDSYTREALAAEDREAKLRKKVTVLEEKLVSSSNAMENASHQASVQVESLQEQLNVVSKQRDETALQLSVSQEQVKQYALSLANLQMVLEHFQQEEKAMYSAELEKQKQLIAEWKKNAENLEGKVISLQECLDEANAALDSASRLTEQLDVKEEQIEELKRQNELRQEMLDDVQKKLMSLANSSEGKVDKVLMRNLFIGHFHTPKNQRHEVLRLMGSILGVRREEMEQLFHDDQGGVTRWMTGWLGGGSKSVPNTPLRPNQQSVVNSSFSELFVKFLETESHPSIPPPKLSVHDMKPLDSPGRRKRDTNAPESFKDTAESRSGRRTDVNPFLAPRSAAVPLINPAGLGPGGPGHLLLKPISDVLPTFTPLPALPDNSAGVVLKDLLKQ
UniProt P53762, residues 344-479: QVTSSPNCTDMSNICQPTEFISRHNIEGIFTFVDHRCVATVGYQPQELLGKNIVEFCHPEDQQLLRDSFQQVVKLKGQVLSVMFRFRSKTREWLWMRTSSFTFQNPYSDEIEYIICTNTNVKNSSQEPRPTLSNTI
UniProt P27540: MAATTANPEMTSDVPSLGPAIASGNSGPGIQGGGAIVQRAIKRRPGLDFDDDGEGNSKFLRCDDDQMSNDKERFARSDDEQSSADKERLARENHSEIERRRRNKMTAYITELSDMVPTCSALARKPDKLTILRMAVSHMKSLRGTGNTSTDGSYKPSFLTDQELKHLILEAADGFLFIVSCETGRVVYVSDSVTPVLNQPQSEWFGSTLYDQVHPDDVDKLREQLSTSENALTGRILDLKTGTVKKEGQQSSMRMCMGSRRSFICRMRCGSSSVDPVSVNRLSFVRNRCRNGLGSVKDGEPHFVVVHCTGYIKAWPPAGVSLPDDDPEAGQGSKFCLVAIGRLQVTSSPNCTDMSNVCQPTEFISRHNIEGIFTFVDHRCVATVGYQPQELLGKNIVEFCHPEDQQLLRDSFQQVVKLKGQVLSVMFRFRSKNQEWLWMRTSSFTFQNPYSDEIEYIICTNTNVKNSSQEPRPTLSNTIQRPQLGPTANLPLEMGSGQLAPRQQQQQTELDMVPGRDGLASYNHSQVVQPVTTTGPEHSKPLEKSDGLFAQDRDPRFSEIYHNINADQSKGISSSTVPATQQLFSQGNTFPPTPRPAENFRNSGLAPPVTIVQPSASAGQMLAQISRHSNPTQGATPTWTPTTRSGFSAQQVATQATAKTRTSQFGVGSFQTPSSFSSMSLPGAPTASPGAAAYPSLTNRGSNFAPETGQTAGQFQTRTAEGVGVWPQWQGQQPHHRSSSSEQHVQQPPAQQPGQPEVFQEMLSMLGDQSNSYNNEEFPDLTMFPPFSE

What was measured:
[1] = biological target: thyroid hormone receptor/retinoblastoma-interacting protein-230 (TRIP230) (human (endogenous in MCF7)) (UniProt Q15643); test: co-IP; about 1 mg nuclear extract of MCF7 cells kept in 1% O2 for 6 h, 5 µg anti-TRIP230 mouse IgG or control mouse IgG, 4°C 90 min, Protein-G sepharose; immuno-blot for TRIP230, ARNT and Rb
[2] = biological target: GST-ARNT-PAS-B (amino acids 344-479 of mouse ARNT, expanded PAS-B domain, fused to GST) (mouse) (UniProt P53762); test: pull-down; GST or GST-ARNT-PAS-B on glutathione-agarose beads incubated with MCF7 nuclear extract at 4°C for 90 min; extracts of cells at normoxia or in 1% O2 for 6 h; immuno-blot for TRIP230, Rb or phospho-Rb (Ser780); only the target purified

Row | Substance | binding [1] | binding [2]
1 | aryl hydrocarbon receptor nuclear translocator (ARNT) (from UniProt P27540 1-789) | binds | 
2 | thyroid hormone receptor/retinoblastoma-interacting protein-230 (TRIP230) (from UniProt Q15643 1-1979) |  | binds
